Results are given in words; binding and its absence hold for the method and conditions named. Binding can be weak; no strength is given.
Tests used:
[1] = biological target: T1, SMC-5 (wild-type) (C. elegans) (UniProt Q18237); test: two-hybrid; Y2HGold yeast; pGBKT7 bait and pGADT7 prey; both configurations (SMC-5 on Gal4 AD with NSE-4 on Gal4 BD, and the reciprocal); growth on SD-Trp-Leu-His + 3-AT, 2-3 days at 30 °C
T1 sequence: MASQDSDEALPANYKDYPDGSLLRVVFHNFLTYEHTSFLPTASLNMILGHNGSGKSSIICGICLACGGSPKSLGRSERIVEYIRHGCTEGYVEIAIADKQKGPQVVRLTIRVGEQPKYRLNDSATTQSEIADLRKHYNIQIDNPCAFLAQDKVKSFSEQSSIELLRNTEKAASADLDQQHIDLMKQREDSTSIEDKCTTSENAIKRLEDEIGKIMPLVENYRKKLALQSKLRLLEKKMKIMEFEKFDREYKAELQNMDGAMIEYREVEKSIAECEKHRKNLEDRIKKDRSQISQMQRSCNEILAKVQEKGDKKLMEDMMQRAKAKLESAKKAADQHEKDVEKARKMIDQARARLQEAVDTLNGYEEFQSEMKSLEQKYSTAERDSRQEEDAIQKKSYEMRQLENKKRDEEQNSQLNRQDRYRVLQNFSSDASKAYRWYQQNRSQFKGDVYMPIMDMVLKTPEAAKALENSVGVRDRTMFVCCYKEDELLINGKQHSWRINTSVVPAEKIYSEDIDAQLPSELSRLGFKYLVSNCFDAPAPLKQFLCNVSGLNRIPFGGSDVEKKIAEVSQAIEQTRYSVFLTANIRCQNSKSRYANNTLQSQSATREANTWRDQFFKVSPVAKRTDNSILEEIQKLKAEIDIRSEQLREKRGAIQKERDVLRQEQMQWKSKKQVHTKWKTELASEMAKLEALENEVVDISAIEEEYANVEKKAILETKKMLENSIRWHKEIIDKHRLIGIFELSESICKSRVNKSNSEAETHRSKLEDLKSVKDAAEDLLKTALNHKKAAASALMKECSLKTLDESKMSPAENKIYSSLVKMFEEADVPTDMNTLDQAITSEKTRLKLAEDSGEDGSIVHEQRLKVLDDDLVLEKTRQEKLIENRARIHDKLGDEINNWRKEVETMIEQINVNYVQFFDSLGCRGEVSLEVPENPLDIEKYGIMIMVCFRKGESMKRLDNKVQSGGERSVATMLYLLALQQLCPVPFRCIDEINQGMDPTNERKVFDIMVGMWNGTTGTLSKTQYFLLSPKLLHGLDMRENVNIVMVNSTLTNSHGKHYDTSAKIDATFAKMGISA

[2] = biological target: NSE-4 (Non-SMC Element 4) (C. elegans) (UniProt Q9XTV3); test: as above

## NSE-4 (Non-SMC Element 4) (from UniProt Q9XTV3)
[1]
  binding: binds

B1: SMC-5 (wild-type) (protein, UniProt Q18237 1-1076)
chain: T1 sequence
[2]
  binding: binds
